Consider four molecules from PMC6401487.

These are yes or no findings as the source states them, for the method shown. Binding seen in cells or lysates may run through a third protein. These calls come from enrichment with a bait or labelling near it, and not all partners need be listed. For part of these data: No binding means not detected with the bait. Tags and fused reporters may be left off the sequences shown.

Assay [1] deals with T1, Ferredoxin 3 (Fd-3), encoded by TK2012, with C-terminal HA-His6 extension (Thermococcus kodakarensis) (UniProt Q5JDE8).
T1 sequence: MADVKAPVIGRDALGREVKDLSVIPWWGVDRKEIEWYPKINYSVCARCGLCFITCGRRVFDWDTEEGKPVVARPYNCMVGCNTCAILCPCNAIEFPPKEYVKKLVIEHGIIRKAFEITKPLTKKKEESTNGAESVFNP
Nature of the assay: affinity purification with mass spectrometry; C-terminally HA-His6-tagged Fd made from its own genomic locus; clarified lysates of cultures grown with S0 or without S0 (pyruvate); Ni2+-charged chelating column at 4 °C in 25 mM Tris-HCl pH 8.0, 500 mM NaCl, 10% glycerol; linear imidazole gradient; pooled Fd-containing fractions analysed by MuDPIT; proteins also found in equivalent fractions of parental strain TS559 subtracted.

The target in assay [2] is T2, Ferredoxin 1 (Fd-1), encoded by TK1694, with C-terminal HA-His6 extension (Thermococcus kodakarensis) (UniProt Q977X3).
T2 sequence: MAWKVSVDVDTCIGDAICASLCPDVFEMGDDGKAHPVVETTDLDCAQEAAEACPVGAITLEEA
The assay is described as above.

Assay [3] has as its target T3, Ferredoxin 3 (Fd-3), encoded by TK2012, with C-terminal HA-His6 extension (Thermococcus kodakarensis), Q5JDE8.
T3 chain: T1 sequence
The assay can be described thus: affinity purification with mass spectrometry; C-terminally HA-His6-tagged Fd made from its own genomic locus; clarified lysates of cultures grown with S0 or without S0 (pyruvate); Ni2+-charged chelating column at 4 °C in 25 mM Tris-HCl pH 8.0, 500 mM NaCl, 10% glycerol; linear imidazole gradient; pooled Fd-containing fractions analysed by MuDPIT; proteins also found in equivalent fractions of parental strain TS559 …. To be noted: remark: other sources report otherwise.

Assay [4] deals with T3, Ferredoxin 3 (Fd-3), encoded by TK2012, …. The assay is described as above. To be noted: remark: other sources report otherwise.

B1: Indolepyruvate:ferredoxin oxidoreductase, α subunit (protein, UniProt O07835 1-647)
chain: MAKVTDIVLWDKPGERVLLLGNHAIARGALEANIAVFAAYPGTPSSELTDTMAAVAKKAGVYMEYSTNEKVAFETALAAAWSGLRAMTAMKHVGLNVAADSFLSSVGMGVEGGFVIMVADDPSMWSSQNEQDTRVYAKFANVPVLEPSSPHEAKEMTKYAFELSEKFKHFVILRTTTRSSHARGDVVLGELPEEIKTGKRKFGKFKKDPTRFVDVPAHARKFHPLILEKIEKIREELNNCPFNWIEGKEDAKVGIIAPGLSYAYVKEALAWLGVEDVKILKLGTPFPVPYGLLGKFFDGLEKVLIVEELEPVVEEQVKTWAYDKGLRIPIHGKDLVPRVYEMTTRRAVEAIAKFLGLETPINFAEIDEKYEKVSQIVPPRPPSLCPACPHRNSFFAIRKAAGPKAIYPSDIGCYTLGVLPPLRTVDTTVAMGASIGIGHGLSIAMNGSLAEEEHKEGKEKQIIVATIGDSTFYHTGLPALANAIYNRSNVLIVVLDNLVTAMTGDQPNPGTGQTPHGMGKRIPIEDVAKAMGADFVAVVDPYDIKATYETIKKALEVEGVSVVVSRQVCALYKIGQMRRRGMKWPIYHVVEDKCTGCKICINAYGCPAIYWDPETKKAKVDPTMCWGCGGCAQVCPFDAFEPMKEGE
Take B1: the binding entry was “no binding” in assay [1] and “binds” in assay [2].

B2: Indolepyruvate:ferredoxin oxidoreductase, β subunit (protein, UniProt O07836 1-202)
chain: MKEYNIVITGVGGQGILTAANLLGWAALRAGYKVRVGEVHGMSQRFGSVIAYVRFGEDVYGAMVPEGKADVILSFEPVEALRYINYLKKGGLVFTNARPIPPVQVSMGLATYPTLDEMKKIVEEDFGGKFMAFDAEKLAMEAGNIVTTNVVLIGALSQTPGFPLSEEQIKEVIRISVPPKTIDVNMRAFELGVKAAKEMLGL
Consider B2, for which the binding entry in assay [1] is “no binding”; in assay [2] it was “binds”.

B3: 2-Oxoacid:ferredoxin oxidoreductases, β subunit, Q5JE71 1-288 (protein)
chain: MAKEIYSRYPMVKYLRKEALPTALCPGCGGGTVLNAFANAVDQLRIDPKDLVVVSGIGCSAWIASPYFLADTLHTTHGRAIAFATGVKVGLPDKKVVVISGDGDLASIGGNHLIHAARRNIDITVILVNNMIYGMTGGQVAPTTPFGAKTTTTPYRNIEHPLQISETVAAAGASYVARWTTAHVYQLIESIKKALQVKGFSLVEVVSQCPVQFGRRNRMKEPAEMLRWFLKNSVPISKAKKMSPEELEDKFVIGEFVNRERPEFVSELNKLIDEVQEHFGLKGEDDGV
Regarding B3, the binding entry in assay [3] is given as “no binding”.

B4: Geranylgeranyl hydrogenase, Q5JE27 1-395 (protein)
chain: MTWKYDVVVVGSGIAGPIVARNVAKAGFSVLLIDKKWAIGTPKQCAEAISIKVFDKYDIPYDKRFINREIYGAKLYSPSGYELEMRYKEVSGVILERKVFDKMLAYYAAKAGADVLARTEALDVIRKDGKIVGIKAKHEDEPVEIYADIIVAADGVESTIARKAGINTYAPPHEFDSGYEYEMLIEGFDPDLIHLWFGNEVAPRGYVWVFPKDEDRANVGIGINSDNPKTAKYYLDKWLEENNIPAKKLLEINVGLIPVGGFVKELAKDNVVVVGDAARQVNPMHGGGMAEAMEAGTIASKWIVKALEEENLSLLQNYTKEWWETDGKRLEKVLKVRRVTEKLTDEDLDLFIQILSGADAEKIASGDYAEVIKALLKHPKVLMSKRRLSLLKELL
As for B4, the binding entry in assay [4] is “no binding”.
